Results from the supplement of paper PMC6078165.
The reference is the same well before dosing, and untreated signal decays as well.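 Fibroblast labels name human fibroblasts: mostly primary ones from tissues such as uterus (C12385, HUF), lung (H6013), bone (Hs27A), adrenal (HADF) and skin (WS1), plus mammary HMF and breast cancer-associated Hs343T. The cancer cells are basal-like or mesenchymal-like triple-negative breast cancer lines. The paper calls a changed response a hit when it shifts by more than 3x the replicate standard deviation. The tissue of the other fibroblasts is not given here.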

System: Hs578T
Assay: relative JC-1 red fluorescence (viability) vs pre-drug, coculture with fibroblast (fraction); higher = more viable cancer cells
Method: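 JC-1 labelled TNBC cells cocultured 1:1 (1,500 cells each) with CellTrace Violet stained primary or stromal fibroblasts in 384-well plates in FluoroBrite medium, treated with one of 42 anticancer drugs at 0.1, 1, 10 or 100 uM. JC-1 red fluorescence (mitochondrial integrity in cancer cells only) was read by plate reader every 8 h for 72 h. Values are normalised to each well's pre-drug value. The stock of one drug was tenfold lower, so its dose labels may be too high.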

CC[C@]1(O)C[C@@H]2CN(CCc3c([nH]c4ccccc34)[C@@](C(=O)OC)(c3cc4c(cc3OC)N(C)[C@H]3[C@@](O)(C(=O)OC)[C@H](OC(C)=O)[C@]5(CC)C=CCN6CC[C@]43[C@@H]65)C2)C1 [Vinblastine]
relative JC-1 red fluorescence
Settings	8 h	16 h	24 h	32 h	40 h	48 h	56 h	64 h	72 h
0.1 µM	0.8683	0.788	0.712	0.651	0.571	0.536	0.516	0.485	0.482
1 µM	0.852	0.775	0.7454	0.702	0.642	0.599	0.585	0.558	0.556

relative JC-1 red fluorescence
Settings	8 h	16 h	24 h	32 h	40 h	48 h	56 h	64 h	72 h
0.1 µM, coculture fibroblast: C12385	0.833	0.7247	0.699	0.58	0.508	0.482	0.459	0.465	0.47
0.1 µM, coculture fibroblast: H6013	0.85088	0.8395	0.7971	0.749	0.708	0.689	0.682	0.686	0.667
0.1 µM, coculture fibroblast: H6019	0.802	0.705	0.68	0.596	0.553	0.532	0.511	0.507	0.494
0.1 µM, coculture fibroblast: H6076	0.8894	0.806	0.746	0.703	0.637	0.636	0.621	0.616	0.619
0.1 µM, coculture fibroblast: H6231	0.929	0.823	0.7299	0.657	0.574	0.539	0.49	0.471	0.46
0.1 µM, coculture fibroblast: HADF	0.85	0.788	0.717	0.64	0.596	0.571	0.544	0.543	0.527
0.1 µM, coculture fibroblast: HCFa	0.8247	0.777	0.705	0.617	0.5437	0.5	0.464	0.447	0.414
0.1 µM, coculture fibroblast: HCPF	0.895	0.833	0.802	0.756	0.67	0.628	0.597	0.559	0.541
0.1 µM, coculture fibroblast: HHSteC	0.867	0.802	0.728	0.649	0.594	0.552	0.53	0.508	0.483
0.1 µM, coculture fibroblast: HMF	0.879	0.858	0.856	0.84	0.772	0.747	0.718	0.706	0.701
0.1 µM, coculture fibroblast: HPFa	0.924	0.825	0.778	0.705	0.668	0.64	0.607	0.596	0.57
0.1 µM, coculture fibroblast: HUF	0.908	0.768	0.764	0.65	0.585	0.567	0.539	0.538	0.537
0.1 µM, coculture fibroblast: Hs27A	0.909	0.8149	0.763	0.688	0.621	0.604	0.573	0.566	0.531
0.1 µM, coculture fibroblast: Hs343T	0.87	0.784	0.734	0.692	0.608	0.571	0.545	0.524	0.543
0.1 µM, coculture fibroblast: WS1	0.83	0.715	0.69	0.589	0.5283	0.51004	0.474	0.474	0.475
1 µM, coculture fibroblast: C12385	0.818	0.7134	0.69049	0.5848	0.529	0.503	0.477	0.48	0.49
1 µM, coculture fibroblast: H6013	0.888	0.891	0.86	0.812	0.766	0.757	0.733	0.738	0.726
1 µM, coculture fibroblast: H6019	0.754	0.705	0.71	0.624	0.59	0.5796	0.567	0.563	0.553
1 µM, coculture fibroblast: H6076	0.8629	0.799	0.772	0.758	0.702	0.698	0.7	0.689	0.7
1 µM, coculture fibroblast: H6231	0.8765	0.7846	0.7295	0.684	0.612	0.59	0.565	0.548	0.558
1 µM, coculture fibroblast: HADF	0.901	0.833	0.781	0.711	0.656	0.6295	0.5951	0.59	0.573
1 µM, coculture fibroblast: HCFa	0.83	0.781	0.731	0.673	0.619	0.608	0.587	0.578	0.559
1 µM, coculture fibroblast: HCPF	0.904	0.803	0.76583	0.7313	0.669	0.628	0.631	0.596	0.591
1 µM, coculture fibroblast: HHSteC	0.858	0.8142	0.7598	0.685	0.618	0.577	0.55	0.52	0.494
1 µM, coculture fibroblast: HMF	0.86	0.779	0.735	0.694	0.596	0.557	0.536	0.512	0.513
1 µM, coculture fibroblast: HPFa	0.934	0.858	0.806	0.718	0.642	0.609	0.567	0.549	0.513
1 µM, coculture fibroblast: HUF	0.884	0.748	0.742	0.621	0.556	0.527	0.497	0.495	0.497
1 µM, coculture fibroblast: Hs27A	0.925	0.87296	0.812	0.771	0.726	0.718	0.689	0.682	0.642
1 µM, coculture fibroblast: Hs343T	0.845	0.744	0.69	0.6479	0.563	0.537	0.517	0.512	0.5296
1 µM, coculture fibroblast: WS1	0.783	0.726	0.671	0.569	0.501	0.478	0.454	0.462	0.465
